No constants are given. Whether binding was seen depends on the method and setting. Binding seen in cells or lysates may run through a third protein. These calls come from enrichment with a bait or labelling near it, and not all partners need be listed.
B1: TAK1 (also known as MAP3K7) (enzyme, UniProt O43318 1-606)
chain: MSTASAASSSSSSSAGEMIEAPSQVLNFEEIDYKEIEVEEVVGRGAFGVVCKAKWRAKDVAIKQIESESERKAFIVELRQLSRVNHPNIVKLYGACLNPVCLVMEYAEGGSLYNVLHGAEPLPYYTAAHAMSWCLQCSQGVAYLHSMQPKALIHRDLKPPNLLLVAGGTVLKICDFGTACDIQTHMTNNKGSAAWMAPEVFEGSNYSEKCDVFSWGIILWEVITRRKPFDEIGGPAFRIMWAVHNGTRPPLIKNLPKPIESLMTRCWSKDPSQRPSMEEIVKIMTHLMRYFPGADEPLQYPCQYSDEGQSNSATSTGSFMDIASTNTSNKSDTNMEQVPATNDTIKRLESKLLKNQAKQQSESGRLSLGASRGSSVESLPPTSEGKRMSADMSEIEARIAATTAYSKPKRGHRKTASFGNILDVPEIVISGNGQPRRRSIQDLTVTGTEPGQVSSRSSSPSVRMITTSGPTSEKPTRSHPWTPDDSTDTNGSDNSIPMAYLTLDHQLQPLAPCPNSKESMAVFEQHCKMAQEYMKVQTEIALLLQRKQELVAELDQDEKDQQNTSRLVQEHKKLLDENKSLSTYYQQCKKQLEVIRSQQQKRQGTS
B2: IFIT5 (protein, UniProt Q13325 1-482)
chain: MSEIRKDTLKAILLELECHFTWNLLKEDIDLFEVEDTIGQQLEFLTTKSRLALYNLLAYVKHLKGQNKDALECLEQAEEIIQQEHSDKEEVRSLVTWGNYAWVYYHMDQLEEAQKYTGKIGNVCKKLSSPSNYKLECPETDCEKGWALLKFGGKYYQKAKAAFEKALEVEPDNPEFNIGYAITVYRLDDSDREGSVKSFSLGPLRKAVTLNPDNSYIKVFLALKLQDVHAEAEGEKYIEEILDQISSQPYVLRYAAKFYRRKNSWNKALELLKKALEVTPTSSFLHHQMGLCYRAQMIQIKKATHNRPKGKDKLKVDELISSAIFHFKAAMERDSMFAFAYTDLANMYAEGGQYSNAEDIFRKALRLENITDDHKHQIHYHYGRFQEFHRKSENTAIHHYLEALKVKDRSPLRTKLTSALKKLSTKRLCHNALDVQSLSALGFVYKLEGEKRQAAEYYEKAQKIDPENAEFLTALCELRLSI
B3: HERC5 (enzyme, UniProt Q9UII4 1-1024)
chain: MERRSRRKSRRNGRSTAGKAAATQPAKSPGAQLWLFPSAAGLHRALLRRVEVTRQLCCSPGRLAVLERGGAGVQVHQLLAGSGGARTPKCIKLGKNMKIHSVDQGAEHMLILSSDGKPFEYDNYSMKHLRFESILQEKKIIQITCGDYHSLALSKGGELFAWGQNLHGQLGVGRKFPSTTTPQIVEHLAGVPLAQISAGEAHSMALSMSGNIYSWGKNECGQLGLGHTESKDDPSLIEGLDNQKVEFVACGGSHSALLTQDGLLFTFGAGKHGQLGHNSTQNELRPCLVAELVGYRVTQIACGRWHTLAYVSDLGKVFSFGSGKDGQLGNGGTRDQLMPLPVKVSSSEELKLESHTSEKELIMIAGGNQSILLWIKKENSYVNLKRTIPTLNEGTVKRWIADVETKRWQSTKREIQEIFSSPACLTGSFLRKRRTTEMMPVYLDLNKARNIFKELTQKDWITNMITTCLKDNLLKRLPFHSPPQEALEIFFLLPECPMMHISNNWESLVVPFAKVVCKMSDQSSLVLEEYWATLQESTFSKLVQMFKTAVICQLDYWDESAEENGNVQALLEMLKKLHRVNQVKCQLPESIFQVDELLHRLNFFVEVCRRYLWKMTVDASENVQCCVIFSHFPFIFNNLSKIKLLHTDTLLKIESKKHKAYLRSAAIEEERESEFALRPTFDLTVRRNHLIEDVLNQLSQFENEDLRKELWVSFSGEIGYDLGGVKKEFFYCLFAEMIQPEYGMFMYPEGASCMWFPVKPKFEKKRYFFFGVLCGLSLFNCNVANLPFPLALFKKLLDQMPSLEDLKELSPDLGKNLQTLLDDEGDNFEEVFYIHFNVHWDRNDTNLIPNGSSITVNQTNKRDYVSKYINYIFNDSVKAVYEEFRRGFYKMCDEDIIKLFHPEELKDVIVGNTDYDWKTFEKNARYEPGYNSSHPTIVMFWKAFHKLTLEEKKKFLVFLTGTDRLQMKDLNNMKITFCCPESWNERDPIRALTCFSVLFLPKYSTMETVEEALQEAINNNRGFG

Amino acid sequences for entries named in this document (tags omitted).
UniProt Q9H4L4: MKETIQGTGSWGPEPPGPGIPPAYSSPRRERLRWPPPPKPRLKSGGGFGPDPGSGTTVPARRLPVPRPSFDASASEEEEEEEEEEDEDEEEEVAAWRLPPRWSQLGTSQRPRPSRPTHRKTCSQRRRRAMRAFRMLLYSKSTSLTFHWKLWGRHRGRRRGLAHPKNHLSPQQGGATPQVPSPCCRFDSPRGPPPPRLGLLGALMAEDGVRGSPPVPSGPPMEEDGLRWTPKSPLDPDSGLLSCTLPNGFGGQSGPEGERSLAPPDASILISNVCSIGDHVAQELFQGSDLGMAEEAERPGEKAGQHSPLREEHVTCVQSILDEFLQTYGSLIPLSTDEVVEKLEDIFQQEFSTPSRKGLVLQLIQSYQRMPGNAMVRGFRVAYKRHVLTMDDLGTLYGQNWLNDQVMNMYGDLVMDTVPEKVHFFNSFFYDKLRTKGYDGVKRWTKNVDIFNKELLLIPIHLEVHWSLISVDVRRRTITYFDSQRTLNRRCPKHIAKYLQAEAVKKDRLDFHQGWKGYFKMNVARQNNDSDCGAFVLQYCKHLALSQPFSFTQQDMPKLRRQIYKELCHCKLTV
UniProt Q8IY21: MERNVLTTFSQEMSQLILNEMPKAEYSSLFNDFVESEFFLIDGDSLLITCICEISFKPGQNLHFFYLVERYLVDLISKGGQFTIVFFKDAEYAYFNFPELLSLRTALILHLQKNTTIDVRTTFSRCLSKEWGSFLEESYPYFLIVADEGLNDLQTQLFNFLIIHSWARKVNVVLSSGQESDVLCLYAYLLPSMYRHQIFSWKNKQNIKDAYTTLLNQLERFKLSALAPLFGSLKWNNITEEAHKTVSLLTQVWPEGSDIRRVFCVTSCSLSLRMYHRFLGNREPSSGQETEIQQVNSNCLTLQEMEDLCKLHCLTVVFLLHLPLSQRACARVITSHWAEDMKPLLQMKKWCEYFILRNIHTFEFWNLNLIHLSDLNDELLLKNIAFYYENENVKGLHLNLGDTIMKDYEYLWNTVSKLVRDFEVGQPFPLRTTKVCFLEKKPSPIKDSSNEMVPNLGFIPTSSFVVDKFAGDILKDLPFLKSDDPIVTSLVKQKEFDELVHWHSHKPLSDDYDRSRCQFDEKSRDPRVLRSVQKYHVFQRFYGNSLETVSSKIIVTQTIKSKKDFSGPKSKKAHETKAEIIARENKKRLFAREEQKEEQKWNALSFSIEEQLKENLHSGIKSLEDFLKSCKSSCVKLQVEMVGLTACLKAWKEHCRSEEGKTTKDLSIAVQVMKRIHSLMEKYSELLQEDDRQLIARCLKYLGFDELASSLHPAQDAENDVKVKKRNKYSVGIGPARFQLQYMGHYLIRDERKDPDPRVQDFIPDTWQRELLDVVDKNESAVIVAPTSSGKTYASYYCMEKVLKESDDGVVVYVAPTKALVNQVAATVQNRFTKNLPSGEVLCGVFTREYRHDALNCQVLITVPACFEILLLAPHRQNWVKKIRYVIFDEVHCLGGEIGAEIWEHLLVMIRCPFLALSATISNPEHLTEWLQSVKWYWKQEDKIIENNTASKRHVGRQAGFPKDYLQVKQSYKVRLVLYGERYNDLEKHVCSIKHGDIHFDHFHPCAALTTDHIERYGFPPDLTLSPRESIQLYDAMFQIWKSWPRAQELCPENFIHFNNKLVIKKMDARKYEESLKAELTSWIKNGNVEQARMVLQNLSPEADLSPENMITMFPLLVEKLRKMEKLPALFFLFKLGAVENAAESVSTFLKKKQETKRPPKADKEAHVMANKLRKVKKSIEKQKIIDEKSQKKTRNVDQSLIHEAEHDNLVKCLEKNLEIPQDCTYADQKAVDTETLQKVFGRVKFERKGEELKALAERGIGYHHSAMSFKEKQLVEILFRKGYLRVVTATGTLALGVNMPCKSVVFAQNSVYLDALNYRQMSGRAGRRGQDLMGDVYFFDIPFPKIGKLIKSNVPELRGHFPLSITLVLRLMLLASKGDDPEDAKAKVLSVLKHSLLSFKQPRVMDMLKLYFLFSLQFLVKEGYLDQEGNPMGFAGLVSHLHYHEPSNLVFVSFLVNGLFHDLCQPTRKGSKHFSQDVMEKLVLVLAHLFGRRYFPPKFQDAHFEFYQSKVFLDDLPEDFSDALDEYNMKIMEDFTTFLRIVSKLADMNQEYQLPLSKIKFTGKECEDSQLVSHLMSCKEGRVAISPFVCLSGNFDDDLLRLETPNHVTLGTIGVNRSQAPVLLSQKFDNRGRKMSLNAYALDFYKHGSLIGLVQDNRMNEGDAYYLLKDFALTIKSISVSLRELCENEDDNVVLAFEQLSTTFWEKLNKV
UniProt P19525: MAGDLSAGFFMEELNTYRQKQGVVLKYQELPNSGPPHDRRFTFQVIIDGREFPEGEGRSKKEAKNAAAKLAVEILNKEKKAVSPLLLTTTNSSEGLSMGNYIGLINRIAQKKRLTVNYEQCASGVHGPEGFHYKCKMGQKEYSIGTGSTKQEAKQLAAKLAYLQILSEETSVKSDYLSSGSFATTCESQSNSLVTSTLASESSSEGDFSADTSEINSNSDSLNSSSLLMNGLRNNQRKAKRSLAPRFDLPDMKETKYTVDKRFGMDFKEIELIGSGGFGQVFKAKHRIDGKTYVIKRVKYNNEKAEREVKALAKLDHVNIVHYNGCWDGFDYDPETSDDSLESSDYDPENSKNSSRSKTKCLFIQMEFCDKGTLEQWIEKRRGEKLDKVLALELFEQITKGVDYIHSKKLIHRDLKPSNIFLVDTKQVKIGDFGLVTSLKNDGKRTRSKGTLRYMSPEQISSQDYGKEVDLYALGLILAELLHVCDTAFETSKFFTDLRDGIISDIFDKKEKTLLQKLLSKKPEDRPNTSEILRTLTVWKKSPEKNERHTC

Target: Flag-tagged SENP3 (human) (UniProt Q9H4L4)
Assay: affinity purification with mass spectrometry

Row | Molecule | binding
1 | DDX60 (from UniProt Q8IY21 1-1712) | binds
2 | EIF2AK2/PKR (from UniProt P19525 1-551) (enzyme) | binds
3 | B1 | binds
4 | B2 | binds
5 | B3 | binds

Reference: article doi:10.1101/2020.02.25.964072
